No constants are given. Whether binding was seen depends on the method and setting. Binding seen in cells or lysates may run through a third protein. Some binding calls cover weakened binding; strength is not graded here. For some of these results: Where a sequence is shown, tags or fusion partners need not be part of it.
Key:
[1] = biological target: CSN7A (COP9 signalosome subunit 7A), endogenous (human (endogenous in LiSa‐2)) (UniProt Q9UBW8); test: co-IP; endogenous CSN complexes immunoprecipitated from LiSa‐2 cell lysates with specific anti‐CSN7A or anti‐CSN7B antibodies (Santa Cruz); western blotting of the precipitates
[2] = biological target: CSN7B (COP9 signalosome subunit 7B), endogenous (human (endogenous in LiSa‐2)) (UniProt Q9H9Q2); test: as above
Flag‐CSN7B (human) = Flag‐CSN7B (human) (UniProt Q9H9Q2); test: pull-down; Flag‐pulldown: lysates of Flag‐CSN7A‐LiSa‐2 or Flag‐CSN7B‐LiSa‐2 cells on an ANTI‐FLAG M2 affinity column, washed with 20 column volumes of 1× TBS (50 mM Tris‐HCl, pH 7.4, 150 mM NaCl, 1 mM EDTA), eluted with Flag peptide (100 μg/mL); western blotting of the eluate
Flag‐CSN7A (human) = Flag‐CSN7A (human) (UniProt Q9UBW8); test: as above

Sequences of proteins named here, by UniProt entry; tags and fusion partners are left off.
UniProt Q9H9Q2: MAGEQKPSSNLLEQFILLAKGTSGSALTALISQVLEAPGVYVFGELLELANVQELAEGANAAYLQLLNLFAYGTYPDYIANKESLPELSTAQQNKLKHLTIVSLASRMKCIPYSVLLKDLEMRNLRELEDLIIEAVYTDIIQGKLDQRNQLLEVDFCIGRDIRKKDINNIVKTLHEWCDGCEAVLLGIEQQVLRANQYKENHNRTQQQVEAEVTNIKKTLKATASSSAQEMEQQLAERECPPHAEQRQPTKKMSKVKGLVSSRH

Measured: binding

B1: ubiquitin‐specific protease 15 (USP15) (enzyme, UniProt Q9Y4E8 1-981)
chain: MAEGGAADLDTQRSDIATLLKTSLRKGDTWYLVDSRWFKQWKKYVGFDSWDKYQMGDQNVYPGPIDNSGLLKDGDAQSLKEHLIDELDYILLPTEGWNKLVSWYTLMEGQEPIARKVVEQGMFVKHCKVEVYLTELKLCENGNMNNVVTRRFSKADTIDTIEKEIRKIFSIPDEKETRLWNKYMSNTFEPLNKPDSTIQDAGLYQGQVLVIEQKNEDGTWPRGPSTPKSPGASNFSTLPKISPSSLSNNYNNMNNRNVKNSNYCLPSYTAYKNYDYSEPGRNNEQPGLCGLSNLGNTCFMNSAIQCLSNTPPLTEYFLNDKYQEELNFDNPLGMRGEIAKSYAELIKQMWSGKFSYVTPRAFKTQVGRFAPQFSGYQQQDCQELLAFLLDGLHEDLNRIRKKPYIQLKDADGRPDKVVAEEAWENHLKRNDSIIVDIFHGLFKSTLVCPECAKISVTFDPFCYLTLPLPMKKERTLEVYLVRMDPLTKPMQYKVVVPKIGNILDLCTALSALSGIPADKMIVTDIYNHRFHRIFAMDENLSSIMERDDIYVFEININRTEDTEHVIIPVCLREKFRHSSYTHHTGSSLFGQPFLMAVPRNNTEDKLYNLLLLRMCRYVKISTETEETEGSLHCCKDQNINGNGPNGIHEEGSPSEMETDEPDDESSQDQELPSENENSQSEDSVGGDNDSENGLCTEDTCKGQLTGHKKRLFTFQFNNLGNTDINYIKDDTRHIRFDDRQLRLDERSFLALDWDPDLKKRYFDENAAEDFEKHESVEYKPPKKPFVKLKDCIELFTTKEKLGAEDPWYCPNCKEHQQATKKLDLWSLPPVLVVHLKRFSYSRYMRDKLDTLVDFPINDLDMSEFLINPNAGPCRYNLIAVSNHYGGMGGGHYTAFAKNKDDGKWYYFDDSSVSTASEDQIVSKAAYVLFYQRQDTFSGTGFFPLDRETKGASAATGIPLESDEDSNDNDNDIENENCMHTN
binds: all assays above

From publication PMC5095148
